In patent US20150038419A1:
Results are given in words; binding and its absence hold for the method and conditions named. Some results given as binding are weak or reduced against the parent protein; the word gives no strength. Where a sequence is shown, tags or fusion partners need not be part of it.

Sequences of proteins named here, by UniProt entry; tags and fusion partners are left off. Residues count along the entry.
UniProt P03952, residues 20-638: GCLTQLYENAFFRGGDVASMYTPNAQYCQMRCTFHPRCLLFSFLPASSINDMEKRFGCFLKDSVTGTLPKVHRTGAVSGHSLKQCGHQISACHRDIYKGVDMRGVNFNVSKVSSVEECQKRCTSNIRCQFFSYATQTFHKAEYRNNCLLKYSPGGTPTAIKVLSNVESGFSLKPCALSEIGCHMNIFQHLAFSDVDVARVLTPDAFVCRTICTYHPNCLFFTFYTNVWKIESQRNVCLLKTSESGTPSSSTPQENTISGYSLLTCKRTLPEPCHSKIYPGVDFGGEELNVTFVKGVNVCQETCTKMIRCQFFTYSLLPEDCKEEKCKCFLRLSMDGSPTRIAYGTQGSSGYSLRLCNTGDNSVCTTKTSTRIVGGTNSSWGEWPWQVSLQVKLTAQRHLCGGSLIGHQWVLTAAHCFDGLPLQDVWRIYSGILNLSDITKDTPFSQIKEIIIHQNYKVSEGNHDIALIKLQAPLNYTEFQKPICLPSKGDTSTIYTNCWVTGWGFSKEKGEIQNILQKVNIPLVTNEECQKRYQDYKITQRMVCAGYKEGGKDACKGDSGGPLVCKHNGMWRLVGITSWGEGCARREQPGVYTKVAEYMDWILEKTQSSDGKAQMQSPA
UniProt Q15661, residues 31-275: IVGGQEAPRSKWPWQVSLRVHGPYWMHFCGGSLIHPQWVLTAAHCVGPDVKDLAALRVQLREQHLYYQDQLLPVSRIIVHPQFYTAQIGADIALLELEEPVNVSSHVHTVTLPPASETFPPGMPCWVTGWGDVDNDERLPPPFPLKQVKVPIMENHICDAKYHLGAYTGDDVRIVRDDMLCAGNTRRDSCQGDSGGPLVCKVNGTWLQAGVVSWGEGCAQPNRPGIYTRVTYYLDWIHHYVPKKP

Assays:
[1] = molecular target: kallikrein (human) (human) (UniProt P03952); assay: enzyme inhibition assay, fluorogenic peptide substrate, 500 nM rSimukunin, 0.08 nM enzyme
[2] = molecular target: kallikrein (human) (human) (UniProt P03952); assay: enzyme inhibition titration, fluorogenic peptide substrate 250 µM, 0.08 nM enzyme
[3] = molecular target: skin β-tryptase (human) (human) (UniProt Q15661); assay: enzyme inhibition titration, fluorogenic peptide substrate 250 µM, 0.01 nM enzyme
[4] = molecular target: skin β-tryptase (human) (human) (UniProt Q15661); assay: enzyme inhibition assay, fluorogenic peptide substrate, 500 nM rSimukunin, 0.01 nM enzyme

binding [1]: binds
binding [2]: binds
binding [3]: binds
binding [4]: binds
B1: recombinant Simukunin (rSV-66), Simulium vittatum SV-66 without signal peptide, His-tagged, expressed in E. coli (protein, not shown: small tags and cut ends)
chain: QENVCNLPVDEGVCRALFKRFYYEPATDSCKEFYYGGCEGNGNRFKSKKECILKCQKNKQLIKTRKRKPKKTTKPPIPIISLD
